No constants are given. Whether binding was seen depends on the method and setting. Some binding calls cover weakened binding; strength is not graded here.
T1: soluble IL1-RAP form (isoform 2) (human, UniProt Q9NPH3 21-350)
T1 construct: Expressed in and purified from 293 cells; also called Q9NPH3-2; soluble form IL1RAP
T1 sequence: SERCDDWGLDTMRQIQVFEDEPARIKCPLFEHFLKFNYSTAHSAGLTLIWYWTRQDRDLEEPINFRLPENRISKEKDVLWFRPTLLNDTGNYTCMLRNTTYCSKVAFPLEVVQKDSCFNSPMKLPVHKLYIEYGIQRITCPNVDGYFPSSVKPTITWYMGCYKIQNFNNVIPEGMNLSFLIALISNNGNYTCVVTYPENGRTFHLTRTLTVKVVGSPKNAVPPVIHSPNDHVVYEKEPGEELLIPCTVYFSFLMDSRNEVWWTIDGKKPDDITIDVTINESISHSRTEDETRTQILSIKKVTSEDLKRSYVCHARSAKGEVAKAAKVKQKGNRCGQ


What was measured:
[1] = molecular target: human interleukin 1 receptor accessory protein, membrane-bound form on cells (human) (UniProt Q9NPH3); assay: FACS titration on EOL-1 cells
[2] = molecular target: his-tagged extracellular domain (ECD) of IL1-RAP (human) (UniProt Q9NPH3); assay: ECD of IL1-RAP in solution inhibits the antibody's binding to HNT-34 cells, FACS
[3] = molecular target: human interleukin 1 receptor accessory protein, membrane-bound form on cells (human) (UniProt Q9NPH3); assay: FACS titration on IL1-RAP transfected 293 cells
[4] = molecular target: human interleukin 1 receptor accessory protein, membrane-bound form on cells (human) (UniProt Q9NPH3); assay: FACS titration on HNT-34 cells with normal human serum, soluble IL1-RAP or ECD of IL1-RAP
[5] = molecular target: human interleukin 1 receptor accessory protein, membrane-bound form on cells (human) (UniProt Q9NPH3); assay: FACS titration on HNT-34 cells in 50%, 25% or 12.5% normal human serum, with 1 ug/mL ECD of IL1-RAP, with 1 ug/mL soluble IL1-RAP, or in PBS
[6] = molecular target: human interleukin 1 receptor accessory protein, membrane-bound form on cells (human) (UniProt Q9NPH3); assay: FACS titration on HNT-34 cells
[7] = molecular target: T1, soluble IL1-RAP form (isoform 2); assay: soluble IL1-RAP in solution inhibits the antibody's binding to HNT-34 cells, FACS
[8] = molecular target: T1, soluble IL1-RAP form (isoform 2); assay: sandwich ELISA with purified ECD of IL1-RAP and soluble IL1-RAP; the weaker of the two
[9] = molecular target: T1, soluble IL1-RAP form (isoform 2); assay: sandwich ELISA: plate coated with goat anti-IL1RAP antibody, then soluble IL1-RAP, then 2H8
Protocol: The extracellular domain of IL1-RAP (Q9NPH3-4) and soluble IL1-RAP form (Q9NPH3-2) were expressed and purified from 293 cells. Sandwich ELISA was performed. The binding data shown in FIGS. 3A and 3B supports the conclusion that clone 2H8 binds to membrane-bound IL1-RAP better compared to soluble IL1-RAP form.

[10] = molecular target: IL1-RAP (antigen of the kinetic measurements of Tables 5A and 5B) (human) (UniProt Q9NPH3); assay: real-time binding trace with fitted curve; instrument, antigen and concentrations are not shown legibly

Binder | binding [1] | binding [10] | other results
anti-IL1-RAP antibody clone 56.12G6 (antibody, V domains shown, Mouse monoclonal antibody) VH: RSNYSSLGAELVKPGASVTLSCEASGYTFTSYWIHWVKQRPGQGLEWIGEINPSHGHTTYNEKFKNKATLTVDKSSSTAYMQVSSLTSEDSAVYYCTRHYGSYYFDLWGQGTTLTVSS VL: QIVLTQSPAIMSAFPGEKVTMTCRASSSVSYMHWYRQKSGTFPKRWIYDTSKLASGVPARFSGSGSGTSYSLTISSMEAEDAATYYCQQWSTNPITFGAGTKLELK | binds |  | binding [2]: binds; binding [3]: binds; binding [4]: binds; binding [5]: binds; binding [6]: binds; binding [7]: binds
anti-IL1-RAP antibody clone 2H8 (antibody, V domains shown, Mouse monoclonal antibody; also called 2H8.3) VH: QIQLVQSGPELKKPGETVKISCKASGYTFTDYSMHWVKQAPGKGLKWMGWINTETGEPTYADDFKGRFAFSLETSASTAYLQINNLKNEDTATYFCARYYGYFDYWGQGTTLTVSS VL: DIVLTQSPASLAVSLGQRATISCRASESVDSYGNSFMHWYQQKPGQPPKLLIYRASNLESGIPARFSGSGSRTDFTLTINPVEADDVATYYCQQSNEDPWTFGGGTKLEIK |  |  | binding [8]: binds; binding [9]: binds
chimeric 54.9D7 (antibody, V domains shown, Chimeric antibody; also called Chi54.9D7) VH: HVQLQQSGPELVRPGASVKLSCKASGYIFITYWMNWVKQRPGQGLEWVGQIFPASGTTYYNELFEGKATLTVDTSSNTAYMHLTSLTSEDSAVYYCARTDFYRYDGGYALDYWGQGTSLTVSS VL: DIVLTQSPISLAVFLGQRATISCRASQSVSTSGYSSMHWYQQKAGQPPKLLIKYASDLESGVPVRFSGSGSGTDFILNIHPVEVEDIATYYCHHSWGIPMYTFGGGTKLEIKR | binds | binds | 
humanized clone of 54.9D7 hH2L3 (antibody, V domains shown, Humanized; also called 54.9D7 H2L3) VH: QVQLVQSGAEVKKPGASVKVSCKASGYIFITYWMNWVRQAPGQGLEWVGQIFPASGTTYYAQKFQGRVTMTVDTSTSTVYMELSSLRSEDTAVYYCARTDFYRYDGGYALDYWGQGTLVTVSS VL: DIQLTQSPSSLSASVGDRATITCRASQSVSTSGYSSMHWYQQKPGKAPKLLIKYASDLESGVPSRFSGSGSGTDFTLTISSVQPEDFATYYCHHSWGIPMYTFGQGTKLEIKR | binds | binds | 
humanized clone of 54.9D7 hH1L3 (antibody, V domains shown, Humanized; also called 54.9D7 H1L3) VH: QVQLVQSGAEVKKPGASVKVSCKASGYIFITYWMNWVRQAPGQGLEWMGQIFPASGTTYYAQKFQGRVTMTRDTSTSTVYMELSSLRSEDTAVYYCARTDFYRYDGGYALDYWGQGTLVTVSS VL: DIQLTQSPSSLSASVGDRATITCRASQSVSTSGYSSMHWYQQKPGKAPKLLIKYASDLESGVPSRFSGSGSGTDFTLTISSVQPEDFATYYCHHSWGIPMYTFGQGTKLEIKR | binds | binds | 
humanized clone of 54.9D7 hH3L3 (antibody, V domains shown, Humanized; also called 54.9D7 H3L3) VH: QVQLVQSGAEVKKPGASVKLSCKASGYIFITYWMNWVRQAPGQGLEWVGQIFPASGTTYYAQKFQGRATLTVDTSTSTAYMELSSLRSEDTAVYYCARTDFYRYDGGYALDYWGQGTLLTVSS VL: DIQLTQSPSSLSASVGDRATITCRASQSVSTSGYSSMHWYQQKPGKAPKLLIKYASDLESGVPSRFSGSGSGTDFTLTISSVQPEDFATYYCHHSWGIPMYTFGQGTKLEIKR | binds | binds | 

From patent US20190338038A1 (CELLERANT THERAPEUTICS, published 2019)
